Patent US7265267
These are yes or no findings as the source states them, for the method shown. Some results given as binding are weak or reduced against the parent protein; the word gives no strength. Tags and fused reporters may be left off the sequences shown. Values belong to the binder of their own block, whether it stands above or below them.

By UniProt entry, the sequences of proteins in these tests, tags left out. Where a name states a change or a piece, a line headed by the entry shows the natural chain unless it says otherwise.
UniProt P04386: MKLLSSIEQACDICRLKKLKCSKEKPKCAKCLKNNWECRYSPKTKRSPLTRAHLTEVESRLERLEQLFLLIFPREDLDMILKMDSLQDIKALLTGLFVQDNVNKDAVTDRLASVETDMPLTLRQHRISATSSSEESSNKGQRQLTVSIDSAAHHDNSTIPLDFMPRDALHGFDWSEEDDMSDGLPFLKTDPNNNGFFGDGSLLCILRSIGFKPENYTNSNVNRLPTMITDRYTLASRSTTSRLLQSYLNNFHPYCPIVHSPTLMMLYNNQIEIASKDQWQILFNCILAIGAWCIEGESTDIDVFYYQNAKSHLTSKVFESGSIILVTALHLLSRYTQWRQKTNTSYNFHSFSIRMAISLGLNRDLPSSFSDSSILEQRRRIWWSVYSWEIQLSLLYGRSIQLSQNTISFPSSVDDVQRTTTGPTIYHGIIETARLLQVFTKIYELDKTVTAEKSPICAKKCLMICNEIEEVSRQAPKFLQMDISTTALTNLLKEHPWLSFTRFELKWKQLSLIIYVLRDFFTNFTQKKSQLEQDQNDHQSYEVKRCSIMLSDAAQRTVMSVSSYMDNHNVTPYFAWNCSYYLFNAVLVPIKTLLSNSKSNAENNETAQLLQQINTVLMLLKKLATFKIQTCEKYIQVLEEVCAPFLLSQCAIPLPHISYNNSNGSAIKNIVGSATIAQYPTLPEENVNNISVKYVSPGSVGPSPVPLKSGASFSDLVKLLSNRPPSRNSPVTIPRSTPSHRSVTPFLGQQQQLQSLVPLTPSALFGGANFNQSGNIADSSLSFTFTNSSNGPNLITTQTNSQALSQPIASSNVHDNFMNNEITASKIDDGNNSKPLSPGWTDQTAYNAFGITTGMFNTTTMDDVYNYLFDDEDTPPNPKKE
UniProt P24100: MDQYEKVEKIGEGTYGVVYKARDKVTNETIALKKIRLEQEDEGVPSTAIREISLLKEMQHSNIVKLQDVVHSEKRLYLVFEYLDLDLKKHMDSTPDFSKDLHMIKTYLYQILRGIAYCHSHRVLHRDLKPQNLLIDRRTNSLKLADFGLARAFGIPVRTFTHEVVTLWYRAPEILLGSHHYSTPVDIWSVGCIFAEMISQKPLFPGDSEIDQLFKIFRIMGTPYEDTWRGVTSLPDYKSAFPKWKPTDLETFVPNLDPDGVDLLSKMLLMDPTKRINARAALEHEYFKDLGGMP

Columns and labels:
[1] = biological target: T1, GAL4 DNA-binding domain-CDC2aAt fusion (pGBTCDC2A bait) (Arabidopsis thaliana) (UniProt P04386+P24100); test: yeast two-hybrid, growth without histidine
[2] = biological target: T1, GAL4 DNA-binding domain-CDC2aAt fusion (pGBTCDC2A bait) (Arabidopsis thaliana); test: yeast two-hybrid retransformation, growth without histidine

binding [1]: binds
binding [2]: binds
B1: GAL4 activation domain-LDV39 fusion (pGADLDV39) (protein, not shown: large carriers)
chain: RRDSPPVEEQCQIEEEDSSVSCCSTSEEKSKRRIEFVDLEENNGDDRETETSWIYDDLNKSEESMNMDSSSVAVEDVESRRRLRKSLHETVKEAELEDFFQVAEKDLRNKLLECSMKYNFDFEKDEPLGGGRYEWVKLNP

binding [1]: binds
binding [2]: binds
B2: GAL4 activation domain-LDV159 fusion (pGADLDV159) (protein, Arabidopsis thaliana, UniProt Q67Y93 1-191, looked up, not shown: large carriers)
chain: MVRKYRKAKGIVEAGVSSTYMQLRSRRIVYVRSEKSSSVSVVGDNGVSSSCSGSNEYKKKELIHLEEEDKDGDTETSTYRRGTKRKLFENLREEEKEELSKSMENYSSEFESAVKESLDCCCSGRKTMEETVTAEEEEKAKLMTEMPTESEIEDFFVEAEKQLKEKFKKKYNFDFEKEKPLEGRYEWVKLE

binding [1]: binds
binding [2]: binds
B3: GAL4 activation domain-LDV66 fusion (pGADLDV66) (protein, not shown: large carriers)
chain: VNSVPVAQSSNEDECFDNFVSVQVSCGENSLGFESRHSTRESTPCNFVEDMEIMVTPGSSTRSMCRATKEYTREQDNVIPTTSEMEEFFAYAEQQQQRLFMEKYNFDIVNDIPLSGRYEWVQVKP
